{"source": "PubChem BioAssay AID540256", "about": "(National Center for Advancing Translational Sciences (NCATS), 2011)", "note": "Among all 300,000 compounds or so, about 3,700 (1.2%) were called active. This list was built around the results that the source calls inconclusive (neither active nor inactive); the mix of calls is not that of the screen. The call rests on the fitted dose curve; tested in HEK293 cells. Potencies of inconclusive entries are doubtful fits and often do not repeat. On the % scale 0 is the no-effect control and ±100 the full control effect; potency means the concentration at half of the fitted maximal effect."}
{"experiment": "qHTS for Inhibitors of binding or entry into cells for Lassa Virus; further: nearly all actives have a fitted effect of over 50% in size", "conditions": "Lassa virus pseudotype entry inhibition, cell reporter; activity change, negative = inhibition: at 37.9 µM (top of the series) unless noted"}
{"molecule": "Cc1cccc(NC(=O)CSc2nnc(-c3ccco3)c(-c3ccco3)n2)c1", "activity change, negative = inhibition": "inactive: -12.7%"}
{"molecule": "COc1ccc(N2CC(NC(=O)/C=C\\c3ccc4c(c3)OCO4)CC2=O)cc1", "note": "(stereo not given)", "activity change, negative = inhibition": "inactive: 2.32% [at 46.1 µM]"}
{"molecule": "Cc1c(NC(=O)CN2CCN(c3ccc([N+](=O)[O-])cc3)CC2)c(=O)n(-c2ccccc2)n1C", "activity change, negative = inhibition": "inactive: 0.537%"}
{"molecule": "Cc1cc(C)c(S(=O)(=O)c2ccccc2C)c(OCC(C)(C)C)n1", "Potency": "inconclusive: 25.1 µM [inhibitor, single point]"}
{"molecule": "CC(C)Cn1c(N)c(C(=O)CSc2ccc3c(c2)OCCO3)c(=O)n(C)c1=O", "Potency": "inconclusive: 1.64 µM [inhibitor, partial curve, poor fit]"}
{"molecule": "O=C(N/N=C/c1cccnc1)c1ccc(NC(=O)c2ccc(F)cc2)cc1", "Potency": "inconclusive: 35.5 µM [activator, single point]"}
{"molecule": "CCOC(=O)Nc1nc(-c2ccccc2)c(C(=O)c2ccc(Cl)cc2)s1", "Potency": "inconclusive: 1.58 µM [inhibitor, partial curve, poor fit]"}
{"molecule": "O=C(CCc1nnc(-c2ccsc2)o1)NCc1ccccc1OC(F)(F)F", "activity change, negative = inhibition": "inactive: -8.93% [at 46.1 µM]"}
{"molecule": "O=C(Nc1nonc1-c1ccc(Cl)cc1)c1ccccc1F", "activity change, negative = inhibition": "inactive: 10.4% [at 46.1 µM]"}
{"molecule": "CCN(CC)c1ccc(-n2c(C)c(C(C)=O)c(C(C)=O)c2C)cc1", "Potency": "inconclusive: 23.1 µM [inhibitor, single point]"}
{"molecule": "CCOC(=O)c1ccc(NC(=S)N2CCC(C(N)=O)(N3CCCCC3)CC2)cc1", "Potency": "inconclusive: 7.08 µM [inhibitor, partial curve]"}
{"molecule": "CC(=O)Nc1cccc(NC(C)=O)n1", "Potency": "inconclusive: 31.6 µM [activator, single point]"}
{"molecule": "COC(=O)CC1COc2ccccc2N1S(=O)(=O)c1ccc(OC)cc1", "note": "(stereo not given)", "Potency": "inconclusive: 7.08 µM [inhibitor, partial curve, poor fit]"}
{"molecule": "CC(C)CN(CCCNC(=O)c1cc(-c2ccc(Br)s2)nc2ccccc12)CC(C)C", "Potency": "inconclusive: 10 µM [activator, partial curve, poor fit]"}
{"molecule": "COCCn1c(SC(C)C(=O)NC2CCCCC2C)nc2ccccc2c1=O", "note": "(stereo not given)", "Potency": "inconclusive: 35.5 µM [activator, partial curve, poor fit]"}
{"molecule": "COc1cccc(-c2nn(-c3ccccc3)cc2CO)c1", "activity change, negative = inhibition": "inactive: 14.9%"}
{"molecule": "c1ccc(OCc2nn3c(-c4ccccn4)nnc3s2)cc1", "activity change, negative = inhibition": "inactive: 11.5%"}
{"molecule": "CCCC(C)NC(=O)c1c2c(nc3ccccc13)CCC2", "note": "(stereo not given)", "activity change, negative = inhibition": "inconclusive: 11.3% [activator]"}
{"molecule": "CCOc1ccc(N2CC(c3nc4ccccc4n3CCCOc3ccccc3OC)CC2=O)cc1", "note": "(stereo not given)", "Potency": "inconclusive: 22.4 µM [inhibitor, single point]"}
{"molecule": "CCS(=O)(=O)N1CC(=O)N(c2ccc(Cl)cc2C)C(C)(C(=O)NC2CCCCCC2)C1", "note": "(stereo not given)", "Potency": "inconclusive: 7.08 µM [inhibitor, full curve, poor fit]"}
{"molecule": "O=S(=O)(Nc1nc2ccccc2nc1Nc1ccc(N2CCOCC2)cc1)c1cc(Cl)ccc1Cl", "Potency": "inconclusive: 5.17 µM [inhibitor, partial curve]"}
{"molecule": "Nc1c(C(=O)Nc2ccc(Cl)c(C(F)(F)F)c2)sc2nc3c(cc12)N1CCC3CC1", "Potency": "inconclusive: 35.5 µM [inhibitor, single point]"}
{"molecule": "Cc1nc(NC(=O)CSC2=NCCS2)sc1C(=O)N(C)C", "Potency": "inconclusive: 6.31 µM [inhibitor, single point]"}
{"molecule": "OC(CSc1ccccc1)CN1CCN(c2ccc(Cl)cc2)CC1", "note": "(stereo not given)", "Potency": "inconclusive: 5.62 µM [inhibitor, partial curve, poor fit]"}
{"molecule": "Cc1ccc(OCC(=O)Nc2ccc(-c3nc4ncccc4o3)cc2)c(C)c1", "Potency": "inconclusive: 1.83 µM [inhibitor, full curve, poor fit]"}
{"molecule": "Cc1ccc(C)c(NC(=O)C(Sc2nncn2C)c2ccccc2)c1", "note": "(stereo not given)", "activity change, negative = inhibition": "inactive: -7.06%"}
{"molecule": "COc1cccc(N(C(=O)c2snc(C(N)=O)c2N)C(C(=O)NCC2CCCO2)c2c[nH]c3ccccc23)c1", "note": "(stereo not given)", "Potency": "active: 5.62 µM"}
{"molecule": "COc1cccc(NP(=O)(Oc2ccccc2Cl)Oc2ccccc2Cl)c1", "Potency": "inconclusive: 11.2 µM [inhibitor, partial curve, poor fit]"}
{"molecule": "CCOCCCNC(=O)c1ccc2c(c1)ncn2-c1cccc(C)c1", "Potency": "inconclusive: 12.6 µM [inhibitor, partial curve, poor fit]"}
{"molecule": "Cn1cc(Br)c(C(=O)NC2C3CC4CC(C3)CC2C4)n1", "note": "(stereo not given)", "Potency": "inconclusive: 0.58 µM [activator, single point]"}
{"molecule": "CCc1ccc2nc(NC(=O)c3cc(C)on3)sc2c1", "Potency": "inconclusive: 11.2 µM [inhibitor, partial curve, poor fit]"}
{"molecule": "Cc1nc2ccn(Cc3ccco3)c(=O)c2cc1C(=O)NCc1ccccc1F", "Potency": "inconclusive: 11.2 µM [inhibitor, partial curve, poor fit]"}
{"molecule": "Cc1cccc(C(=O)OC(C)CN2CCN(C)CC2)c1", "note": "(stereo not given)", "Potency": "inconclusive: 17.8 µM [inhibitor, single point]"}
{"molecule": "CCOC(=O)c1ccc(NC(=O)c2cnn(-c3ccc(C)cc3C)c2C2CCN(C(=O)OC(C)(C)C)CC2)cc1", "activity change, negative = inhibition": "inactive: -10.1% [at 46.1 µM]"}
{"molecule": "Cc1ccsc1-c1nc(CN2C[C@@H](C)O[C@@H](C)C2)c(C)o1", "Potency": "inconclusive: 7.08 µM [activator, partial curve, poor fit]"}
{"molecule": "CCOc1cc(-c2cc(-c3ccc(N)cc3)nc(N)c2C#N)ccc1O", "Potency": "inconclusive: 35.5 µM [inhibitor, single point]"}
{"molecule": "COc1ccc(-c2nc(C(N)=O)c3[nH]c(=O)n(-c4cccc(Cl)c4)c3n2)cc1OC", "Potency": "inconclusive: 12.6 µM [inhibitor, partial curve, poor fit]"}
{"molecule": "CCCC(=O)NC(c1ccc(C)cc1)c1ccc2cccnc2c1O", "note": "(stereo not given)", "Potency": "inconclusive: 11.2 µM [inhibitor, partial curve, poor fit]"}
{"molecule": "COc1cccc(-c2nc(CS(=O)(=O)CC(=O)NCCc3ccc(OC)cc3OC)c(C)o2)c1", "Potency": "inconclusive: 12.6 µM [inhibitor, partial curve]"}
{"molecule": "CCCC(CCC)C(=O)Nc1cccc(-c2nc3cccnc3s2)c1C", "Potency": "inconclusive: 6.31 µM [activator, single point]"}
{"molecule": "OCC1(Cc2cccc(C(F)(F)F)c2)CCN(Cc2cc3ccccc3o2)CC1", "activity change, negative = inhibition": "inactive: 1.29%"}
{"molecule": "COc1cccc(-n2c(/C=C/c3ccccc3O)nc3ccccc3c2=O)c1", "Potency": "inconclusive: 0.891 µM [inhibitor, full curve, poor fit]"}
{"molecule": "CNc1oc(/C=C/c2ccccc2)nc1C#N", "Potency": "inconclusive: 1.26 µM [activator, partial curve, poor fit]"}
{"molecule": "Nc1nc2ncc(C(=O)c3cc(F)ccc3O)cc2s1", "activity change, negative = inhibition": "inactive: -4.7%"}
{"molecule": "CC(C)C(c1nnnn1C(C)(C)C)N1CCC(Cc2ccccc2)CC1", "note": "(stereo not given)", "Potency": "inconclusive: 0.794 µM [inhibitor, full curve, poor fit]"}
{"molecule": "Cc1ccc(NC(=O)c2noc3c2CCC3)cc1C", "Potency": "inconclusive: 0.316 µM [activator, full curve, poor fit]"}
{"molecule": "COc1cc(C(=O)NCCCNc2ccc([N+](=O)[O-])cc2)cc(OC)c1OC", "activity change, negative = inhibition": "inactive: 0.855%"}
{"molecule": "COc1ccc(C(=O)Nc2nnc(-c3cccs3)s2)cc1", "Potency": "inconclusive: 7.08 µM [inhibitor, full curve, poor fit]"}
{"molecule": "O=C1/C(=C/c2ccc([N+](=O)[O-])cc2)C=C(c2ccccc2)N1c1ccc(O)cc1", "Potency": "inconclusive: 29.1 µM [inhibitor, single point]"}
{"molecule": "O=C(NC1CCCN(c2ccc(C(F)(F)F)cn2)C1)c1ccnc(Cl)c1", "note": "(stereo not given)", "Potency": "inconclusive: 11.2 µM [inhibitor, single point]"}
{"molecule": "CCCOc1cccc(C2C(C(=O)c3cccs3)=C(O)C(=O)N2Cc2cccnc2)c1", "note": "(stereo not given)", "Potency": "inconclusive: 3.98 µM [inhibitor, full curve]"}
{"molecule": "Cc1cc(C)cc(OCC(=O)Nc2cc(C)on2)c1", "activity change, negative = inhibition": "inactive: 17.3% [at 46.1 µM]"}
{"molecule": "Cc1ccccc1-n1c(N)c(C(=O)Nc2ccc(F)cc2)sc1=S", "Potency": "inconclusive: 1.78 µM [inhibitor, partial curve, poor fit]"}
{"molecule": "Cc1ccc(S(=O)(=O)N(CC(=O)N=Nc2c(O)[nH]c3ccccc23)c2cccc(C)c2)cc1", "Potency": "inconclusive: 35.5 µM [inhibitor, single point]"}
{"molecule": "O=C(Nc1ccc2c(c1)CCC2)c1ccccc1Br", "Potency": "inconclusive: 11.2 µM [inhibitor, single point]"}
{"molecule": "Cc1ccc(C(=O)NCc2n[nH]c(=S)n2-c2ccccc2)cc1[N+](=O)[O-]", "activity change, negative = inhibition": "inactive: 0.431% [at 46.1 µM]"}
{"molecule": "O=C(CSc1nnc(NC2CC2)s1)c1ccc[nH]1", "Potency": "inconclusive: 1.26 µM [activator, single point]"}
{"molecule": "Cc1ccc(Nc2ccnc(Nc3cccc(C(N)=O)c3)n2)cc1O", "Potency": "inconclusive: 39.7 µM [inhibitor, single point]"}
{"molecule": "O=C(/C=C/c1ccccc1O)c1ccco1", "Potency": "inconclusive: 14.1 µM [inhibitor, single point]"}
{"molecule": "COc1ccc(-c2oc3ncn4nc(COc5ccc(C)cc5)nc4c3c2-c2ccc(OC)cc2)cc1", "activity change, negative = inhibition": "inactive: -8.19% [at 46.1 µM]"}
{"molecule": "CC1C(=O)N(Cc2cn(CC3CCCCC3)nn2)CCS(=O)(=O)N1Cc1ccc(-c2ccc(F)cc2)cc1", "note": "(stereo not given)", "Potency": "inconclusive: 9.95 µM [inhibitor, full curve, poor fit]"}
{"molecule": "Cc1ccc(/C=N/NC(=S)NC(C)C)o1", "Potency": "inconclusive: 17.8 µM [activator, single point]"}
{"molecule": "O=C1c2ccccc2S(=O)(=O)N1CC1CC(c2ccccc2Cl)=NO1", "note": "(stereo not given)", "activity change, negative = inhibition": "inactive: 7.74%"}
{"molecule": "CCN(CC)C(=S)SCC(=O)c1ccc(Br)cc1", "Potency": "inconclusive: 32.6 µM [inhibitor, partial curve, poor fit]"}
{"molecule": "COC(=O)c1ccccc1NC(=O)CSc1nnnn1-c1ccc(C)cc1C", "Potency": "inconclusive: 35.5 µM [inhibitor, single point]"}
